The source of these data is PMC9763329, “Targeting the transcription factor HES1 by L-menthol restores protein phosphatase 6 in keratinocytes in models of psoriasis” (Nature Communications, 2022).

Chains of the proteins cited; added tags and fusions are not shown.
UniProt O14965: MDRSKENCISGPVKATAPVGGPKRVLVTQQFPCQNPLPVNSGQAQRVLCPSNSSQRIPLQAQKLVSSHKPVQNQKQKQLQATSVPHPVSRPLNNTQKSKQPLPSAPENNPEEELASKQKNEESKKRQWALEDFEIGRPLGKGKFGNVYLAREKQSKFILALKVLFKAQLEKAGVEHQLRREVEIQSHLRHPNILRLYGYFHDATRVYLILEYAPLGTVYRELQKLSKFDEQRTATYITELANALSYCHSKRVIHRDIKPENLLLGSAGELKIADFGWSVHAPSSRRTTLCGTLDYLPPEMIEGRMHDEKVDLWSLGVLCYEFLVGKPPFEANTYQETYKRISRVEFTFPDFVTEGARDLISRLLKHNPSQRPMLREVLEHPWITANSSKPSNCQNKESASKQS
UniProt Q01105: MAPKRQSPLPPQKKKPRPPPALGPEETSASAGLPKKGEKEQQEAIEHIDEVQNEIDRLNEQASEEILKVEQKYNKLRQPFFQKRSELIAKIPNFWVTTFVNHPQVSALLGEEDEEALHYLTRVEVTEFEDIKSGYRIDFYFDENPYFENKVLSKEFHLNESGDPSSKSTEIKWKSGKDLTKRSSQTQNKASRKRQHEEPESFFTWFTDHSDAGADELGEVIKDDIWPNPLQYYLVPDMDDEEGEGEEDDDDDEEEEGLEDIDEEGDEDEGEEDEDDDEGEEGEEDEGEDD

These are yes or no findings as the source states them, for the method shown. Binding seen in cells or lysates may run through a third protein. A yes stands for co-enrichment or nearness to the bait. Other partners may have been found.

B1: immunoglobulin-binding protein 1 (IGBP1) (protein, UniProt P78318 1-339)
chain: MAAEDELQLPRLPELFETGRQLLDEVEVATEPAGSRIVQEKVFKGLDLLEKAAEMLSQLDLFSRNEDLEEIASTDLKYLLVPAFQGALTMKQVNPSKRLDHLQRAREHFINYLTQCHCYHVAEFELPKTMNNSAENHTANSSMAYPSLVAMASQRQAKIQRYKQKKELEHRLSAMKSAVESGQADDERVREYYLLHLQRWIDISLEEIESIDQEIKILRERDSSREASTSNSSRQERPPVKPFILTRNMAQAKVFGAGYPSLPTMTVSDWYEQHRKYGALPDQGIAKAAPEEFRKAAQQQEEQEEKEEEDDEQTLHRAREWDDWKDTHPRGYGNRQNMG

The target in this assay is T1, Protein phosphatase 6 (PP6), overexpressed in HaCaT cells (UniProt O00743).
T1 sequence: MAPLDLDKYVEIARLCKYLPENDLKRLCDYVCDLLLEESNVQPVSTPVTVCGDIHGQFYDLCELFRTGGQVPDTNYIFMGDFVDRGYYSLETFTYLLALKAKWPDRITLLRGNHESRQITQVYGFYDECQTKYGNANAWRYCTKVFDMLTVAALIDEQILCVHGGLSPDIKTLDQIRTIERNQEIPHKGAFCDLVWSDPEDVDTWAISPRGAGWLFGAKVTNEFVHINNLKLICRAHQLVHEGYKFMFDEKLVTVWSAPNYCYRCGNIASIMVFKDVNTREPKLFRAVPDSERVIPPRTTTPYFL
The assay is described as follows: affinity purification with mass spectrometry; lysates of PP6-overexpressing HaCaT cells (with or without 10 uM L-menthol, in the presence of 1 ug/ml R848) incubated with anti-PPP6C or rabbit IgG overnight at 4 C, protein A/G magnetic beads; precipitates analysed by mass spectrometry, hits picked with GeneMANIA analysis.
Take “AURKA (from UniProt O14965 1-403) (enzyme)”: the binding result is “binds”.

As for SET (from UniProt Q01105 1-290), the binding entry is on record as “binds”.

Consider B1, for which the binding result is on record as “binds”.
